Source: publication PMC3532209
No constants are given. Whether binding was seen depends on the method and setting. Binding seen in cells or lysates may run through a third protein. Here binding means that the protein was enriched with, or labelled near, the bait; the list need not be complete. Where a sequence is shown, tags or fusion partners need not be part of it.

Protein sequences, listed by entry. Tags and fused reporters are not part of them.
UniProt P20447: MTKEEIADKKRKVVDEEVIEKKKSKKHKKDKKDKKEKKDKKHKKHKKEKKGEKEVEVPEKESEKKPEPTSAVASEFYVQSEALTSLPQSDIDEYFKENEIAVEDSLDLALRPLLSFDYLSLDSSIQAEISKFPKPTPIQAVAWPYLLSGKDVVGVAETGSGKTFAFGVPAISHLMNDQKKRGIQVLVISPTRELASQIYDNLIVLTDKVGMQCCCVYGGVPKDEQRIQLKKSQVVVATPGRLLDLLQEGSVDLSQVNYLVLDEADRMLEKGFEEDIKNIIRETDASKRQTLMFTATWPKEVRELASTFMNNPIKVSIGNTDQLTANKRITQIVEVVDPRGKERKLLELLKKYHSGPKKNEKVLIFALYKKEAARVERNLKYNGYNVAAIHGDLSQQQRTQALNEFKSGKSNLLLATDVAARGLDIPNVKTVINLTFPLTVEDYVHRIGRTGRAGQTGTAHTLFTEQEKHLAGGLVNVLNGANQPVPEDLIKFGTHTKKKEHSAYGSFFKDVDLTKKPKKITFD
UniProt P11484: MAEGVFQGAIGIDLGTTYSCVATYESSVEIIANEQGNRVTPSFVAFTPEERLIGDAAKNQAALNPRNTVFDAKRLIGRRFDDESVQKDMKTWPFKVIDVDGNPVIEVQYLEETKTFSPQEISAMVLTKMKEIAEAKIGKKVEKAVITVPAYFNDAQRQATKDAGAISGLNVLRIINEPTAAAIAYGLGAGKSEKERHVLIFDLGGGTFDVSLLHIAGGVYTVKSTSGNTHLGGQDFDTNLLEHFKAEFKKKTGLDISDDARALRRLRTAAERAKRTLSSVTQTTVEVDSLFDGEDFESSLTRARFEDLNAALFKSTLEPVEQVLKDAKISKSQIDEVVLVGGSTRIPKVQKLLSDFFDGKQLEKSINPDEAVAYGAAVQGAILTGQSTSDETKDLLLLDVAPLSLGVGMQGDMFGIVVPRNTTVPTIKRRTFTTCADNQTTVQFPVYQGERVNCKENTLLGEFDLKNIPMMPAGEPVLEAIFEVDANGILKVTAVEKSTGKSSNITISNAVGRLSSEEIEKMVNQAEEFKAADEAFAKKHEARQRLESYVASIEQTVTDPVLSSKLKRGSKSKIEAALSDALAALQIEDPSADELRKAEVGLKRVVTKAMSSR
UniProt P10591: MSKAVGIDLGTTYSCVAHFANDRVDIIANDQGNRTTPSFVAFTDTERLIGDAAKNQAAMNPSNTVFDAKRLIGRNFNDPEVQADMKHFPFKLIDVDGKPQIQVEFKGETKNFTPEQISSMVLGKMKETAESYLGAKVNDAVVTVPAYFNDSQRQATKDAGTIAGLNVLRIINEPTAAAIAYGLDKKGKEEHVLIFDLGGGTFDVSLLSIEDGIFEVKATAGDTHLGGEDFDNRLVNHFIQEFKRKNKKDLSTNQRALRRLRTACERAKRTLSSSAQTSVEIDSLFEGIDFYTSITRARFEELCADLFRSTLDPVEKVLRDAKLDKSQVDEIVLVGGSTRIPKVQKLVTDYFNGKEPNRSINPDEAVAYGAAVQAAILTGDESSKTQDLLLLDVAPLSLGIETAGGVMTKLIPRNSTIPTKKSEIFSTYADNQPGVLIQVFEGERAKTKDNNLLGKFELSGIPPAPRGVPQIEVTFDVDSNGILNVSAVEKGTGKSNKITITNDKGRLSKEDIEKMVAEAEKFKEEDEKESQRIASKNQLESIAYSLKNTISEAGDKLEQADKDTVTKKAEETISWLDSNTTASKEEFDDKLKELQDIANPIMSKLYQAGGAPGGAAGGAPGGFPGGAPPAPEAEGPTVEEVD

T1: GST-tagged Mdy2 (S. cerevisiae) (UniProt Q12285)
T1 sequence: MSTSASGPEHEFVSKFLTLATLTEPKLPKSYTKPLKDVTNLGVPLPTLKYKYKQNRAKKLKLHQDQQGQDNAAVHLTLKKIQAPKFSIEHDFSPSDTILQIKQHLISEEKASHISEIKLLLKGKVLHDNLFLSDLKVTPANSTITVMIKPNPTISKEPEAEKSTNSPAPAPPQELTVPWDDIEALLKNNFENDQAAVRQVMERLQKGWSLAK


Target: T1, GST-tagged Mdy2 (S. cerevisiae)
Assay: affinity purification with mass spectrometry; lysates of GST-tagged Mdy2 strains precipitated with Glutathione Sepharose 4B, washed, eluted with glutathione, SDS-PAGE, bands around 70 kD identified by mass spectrometry

binding	Molecule
binds	ATP-dependent RNA helicase Dbp3 (from UniProt P20447 1-523)
binds	Ssb1 (from UniProt P11484 1-613)
binds	Ssa1 (from UniProt P10591 1-642)
binds	checkpoint serine/threonine-protein kinase Bub1 (protein, UniProt P41695 1-1021) MNLDLGSTVRGYESDKDTFPQSKGVSSSQKEQHSQLNQTKIAYEQRLLNDLEDMDDPLDLFLDYMIWISTSYIEVDSESGQEVLRSTMERCLIYIQDMETYRNDPRFLKIWIWYINLFLSNNFHESENTFKYMFNKGIGTKLSLFYEEFSKLLENAQFFLEAKVLLELGAENNCRPYNRLLRSLSNYEDRLREMNIVENQNSVPDSRERLKGRLIYRTAPFFIRKFLTSSLMTDDKENRANLNSNVGVGKSAPNVYQDSIVVADFKSETERLNLNSSKQPSNQRLKNGNKKTSIYADQKQSNNPVYKLINTPGRKPERIVFNFNLIYPENDEEFNTEEILAMIKGLYKVQRRGKKHTEDYTSDKNRKKRKLDVLVERRQDLPSSQPPVVPKSTRIEVFKDDDNPSQSTHHKNTQVQVQTTTSILPLKPVVDGNLAHETPVKPSLTSNASRSPTVTAFSKDAINEVFSMFNQHYSTPGALLDGDDTTTSKFNVFENFTQEFTAKNIEDLTEVKDPKQETVSQQTTSTNETNDRYERLSNSSTRPEKADYMTPIKETTETDVVPIIQTPKEQIRTEDKKSGDNTETQTQLTSTTIQSSPFLTQPEPQAEKLLQTAEHSEKSKEHYPTIIPPFTKIKNQPPVIIENPLSNNLRAKFLSEISPPLFQYNTFYNYNQELKMSSLLKKIHRVSRNENKNPIVDFKKTGDLYCIRGELGEGGYATVYLAESSQGHLRALKVEKPASVWEYYIMSQVEFRLRKSTILKSIINASALHLFLDESYLVLNYASQGTVLDLINLQREKAIDGNGIMDEYLCMFITVELMKVLEKIHEVGIIHGDLKPDNCMIRLEKPGEPLGAHYMRNGEDGWENKGIYLIDFGRSFDMTLLPPGTKFKSNWKADQQDCWEMRAGKPWSYEADYYGLAGVIHSMLFGKFIETIQLQNGRCKLKNPFKRYWKKEIWGVIFDLLLNSGQASNQALPMTEKIVEIRNLIESHLEQHAENHLRNVILSIEEELSHFQYKGKPSRRF
binds	transketolase Tkl1 (protein, UniProt P23254 1-680) MTQFTDIDKLAVSTIRILAVDTVSKANSGHPGAPLGMAPAAHVLWSQMRMNPTNPDWINRDRFVLSNGHAVALLYSMLHLTGYDLSIEDLKQFRQLGSRTPGHPEFELPGVEVTTGPLGQGISNAVGMAMAQANLAATYNKPGFTLSDNYTYVFLGDGCLQEGISSEASSLAGHLKLGNLIAIYDDNKITIDGATSISFDEDVAKRYEAYGWEVLYVENGNEDLAGIAKAIAQAKLSKDKPTLIKMTTTIGYGSLHAGSHSVHGAPLKADDVKQLKSKFGFNPDKSFVVPQEVYDHYQKTILKPGVEANNKWNKLFSEYQKKFPELGAELARRLSGQLPANWESKLPTYTAKDSAVATRKLSETVLEDVYNQLPELIGGSADLTPSNLTRWKEALDFQPPSSGSGNYSGRYIRYGIREHAMGAIMNGISAFGANYKPYGGTFLNFVSYAAGAVRLSALSGHPVIWVATHDSIGVGEDGPTHQPIETLAHFRSLPNIQVWRPADGNEVSAAYKNSLESKHTPSIIALSRQNLPQLEGSSIESASKGGYVLQDVANPDIILVATGSEVSLSVEAAKTLAAKNIKARVVSLPDFFTFDKQPLEYRLSVLPDNVPIMSVEVLATTCWGKYAHQSFGIDRFGASGKAPEVFKFFGFTPEGVAERAQKTIAFYKGDKLISPLKKAF
binds	pre-mRNA polyadenylation factor Fip1 (protein, UniProt P45976 1-327) MSSSEDEDDKFLYGSDSELALPSSKRSRDDEADAGASSNPDIVKRQKFDSPVEETPATARDDRSDEDIYSDSSDDDSDSDLEVIISLGPDPTRLDAKLLDSYSTAATSSSKDVISVATDVSNTITKTSDERLITEGEANQGVTATTVKATESDGNVPKAMTGSIDLDKEGIFDSVGITTIDPEVLKEKPWRQPGANLSDYFNYGFNEFTWMEYLHRQEKLQQDYNPRRILMGLLSLQQQGKLNSANDTDSNLGNIIDNNNNVNNANMSNLNSNMGNSMSGTPNPPAPPMHPSFPPLPMFGSFPPFPMPGMMPPMNQQPNQNQNQNSK
